According to publication PMC4428065:
Results are given in words; binding and its absence hold for the method and conditions named.

Molecular target: T1, DE-ETIOLATED1 (DET1), full-length, yeast two-hybrid bait (Arabidopsis thaliana) (UniProt P48732)
T1 sequence: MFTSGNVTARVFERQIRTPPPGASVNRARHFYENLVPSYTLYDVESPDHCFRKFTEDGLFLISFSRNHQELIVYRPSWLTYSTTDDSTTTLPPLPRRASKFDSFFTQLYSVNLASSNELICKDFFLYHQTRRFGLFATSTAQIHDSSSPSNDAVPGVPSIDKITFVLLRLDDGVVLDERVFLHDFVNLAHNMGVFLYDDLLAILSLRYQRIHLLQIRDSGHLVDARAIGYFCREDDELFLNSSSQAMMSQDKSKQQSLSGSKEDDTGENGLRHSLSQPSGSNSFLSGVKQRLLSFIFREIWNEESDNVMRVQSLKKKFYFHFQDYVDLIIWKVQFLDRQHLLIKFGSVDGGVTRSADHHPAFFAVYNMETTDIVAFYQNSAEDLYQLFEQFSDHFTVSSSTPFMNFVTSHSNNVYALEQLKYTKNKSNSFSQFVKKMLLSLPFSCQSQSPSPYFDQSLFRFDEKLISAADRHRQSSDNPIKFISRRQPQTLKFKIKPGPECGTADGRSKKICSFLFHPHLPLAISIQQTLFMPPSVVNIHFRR
Experiment: two-hybrid; … GAL4 two-hybrid system 3 (pGBKT7 bait, pGADT7 prey) in S. cerevisiae AH109; growth on media lacking adenine, leucine, histidine and tryptophan; beta-galactosidase activity; full-length DET1 as bait in Figure 4b

Row | binding | Substance
1 | no binding | CRY1 C-terminus (CCT1), yeast two-hybrid fusion (Arabidopsis thaliana) (domain or fragment)
2 | no binding | CRY2 C-terminus (CCT2), yeast two-hybrid fusion (Arabidopsis thaliana) (domain or fragment)
